According to publication PMC13080237, “Functional divergence of protein kinase A regulatory subunit Iβ variants: the importance of N3A motifs in PKA regulation” (The Febs Journal, 2025):
Results are given in words; binding and its absence hold for the method and conditions named. In cells and extracts the contact can be indirect. Some entries that bind do so weakly or less than the wild type. Tags and fused reporters may be left off the sequences shown.

The chains behind the UniProt entries cited, without tags or fusion partners.
UniProt P31321: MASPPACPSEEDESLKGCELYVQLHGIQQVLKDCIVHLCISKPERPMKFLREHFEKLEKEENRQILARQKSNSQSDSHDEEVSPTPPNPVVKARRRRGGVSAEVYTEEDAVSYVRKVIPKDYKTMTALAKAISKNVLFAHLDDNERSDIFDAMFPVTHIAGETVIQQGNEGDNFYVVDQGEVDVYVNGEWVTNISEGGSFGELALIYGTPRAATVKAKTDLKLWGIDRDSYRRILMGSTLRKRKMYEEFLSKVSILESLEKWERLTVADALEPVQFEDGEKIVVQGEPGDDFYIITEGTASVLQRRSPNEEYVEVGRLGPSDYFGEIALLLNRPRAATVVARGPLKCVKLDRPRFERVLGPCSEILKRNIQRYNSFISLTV

Molecular target: T1, GFP2 fusion of human protein kinase X (PrKX) (BRET acceptor) (human) (UniProt P51817)
T1 sequence: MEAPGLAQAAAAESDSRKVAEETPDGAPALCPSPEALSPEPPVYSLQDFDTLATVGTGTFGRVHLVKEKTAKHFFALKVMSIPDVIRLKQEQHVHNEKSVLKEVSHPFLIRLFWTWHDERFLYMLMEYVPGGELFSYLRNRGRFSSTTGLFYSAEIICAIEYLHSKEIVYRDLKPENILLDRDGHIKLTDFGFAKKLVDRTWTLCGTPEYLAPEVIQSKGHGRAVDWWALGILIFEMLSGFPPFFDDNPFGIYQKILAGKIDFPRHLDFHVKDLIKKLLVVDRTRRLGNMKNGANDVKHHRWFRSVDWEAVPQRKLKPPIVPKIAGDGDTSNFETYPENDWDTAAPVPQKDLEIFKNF
Assay: FRET or BRET; BRET2 in living HEK293 cells; RLuc8 fused to the R subunit, GFP2 fused to the C subunit; 37 °C, HBSS w/o Mg2+/Ca2+ pH 7.4, coelenterazine 400a; time courses and end points (20 min); cells treated with buffer, 100 nM isoproterenol, or 50 uM forskolin + 100 uM IBMX

binding: binds
Substance: RLuc8 fusion of human RIβ A268 (BRET donor) (from UniProt P31321 1-381)
